The values that follow come from ChEMBL document CHEMBL5696440, “Inhibition of BET recruitment to chromatin as an effective treatment for MLL-fusion leukaemia” (Nature, 2011).

The chains behind the UniProt entries cited, without tags or fusion partners. Where a name states a change or a piece, a line headed by the entry shows the natural chain unless it says otherwise.
UniProt P33261, whole entry: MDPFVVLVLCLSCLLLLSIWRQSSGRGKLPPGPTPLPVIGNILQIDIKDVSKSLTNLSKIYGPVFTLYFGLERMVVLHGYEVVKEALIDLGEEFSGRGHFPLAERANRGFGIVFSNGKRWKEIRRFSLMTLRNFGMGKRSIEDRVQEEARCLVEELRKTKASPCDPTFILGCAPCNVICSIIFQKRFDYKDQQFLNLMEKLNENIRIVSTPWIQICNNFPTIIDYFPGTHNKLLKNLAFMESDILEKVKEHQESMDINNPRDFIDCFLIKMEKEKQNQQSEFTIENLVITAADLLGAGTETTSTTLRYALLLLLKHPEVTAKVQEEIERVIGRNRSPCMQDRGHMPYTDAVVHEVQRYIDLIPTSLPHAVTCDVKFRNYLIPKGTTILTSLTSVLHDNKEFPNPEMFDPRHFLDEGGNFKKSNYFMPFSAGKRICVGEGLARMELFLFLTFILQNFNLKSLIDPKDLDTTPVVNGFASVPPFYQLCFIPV
UniProt Q12809: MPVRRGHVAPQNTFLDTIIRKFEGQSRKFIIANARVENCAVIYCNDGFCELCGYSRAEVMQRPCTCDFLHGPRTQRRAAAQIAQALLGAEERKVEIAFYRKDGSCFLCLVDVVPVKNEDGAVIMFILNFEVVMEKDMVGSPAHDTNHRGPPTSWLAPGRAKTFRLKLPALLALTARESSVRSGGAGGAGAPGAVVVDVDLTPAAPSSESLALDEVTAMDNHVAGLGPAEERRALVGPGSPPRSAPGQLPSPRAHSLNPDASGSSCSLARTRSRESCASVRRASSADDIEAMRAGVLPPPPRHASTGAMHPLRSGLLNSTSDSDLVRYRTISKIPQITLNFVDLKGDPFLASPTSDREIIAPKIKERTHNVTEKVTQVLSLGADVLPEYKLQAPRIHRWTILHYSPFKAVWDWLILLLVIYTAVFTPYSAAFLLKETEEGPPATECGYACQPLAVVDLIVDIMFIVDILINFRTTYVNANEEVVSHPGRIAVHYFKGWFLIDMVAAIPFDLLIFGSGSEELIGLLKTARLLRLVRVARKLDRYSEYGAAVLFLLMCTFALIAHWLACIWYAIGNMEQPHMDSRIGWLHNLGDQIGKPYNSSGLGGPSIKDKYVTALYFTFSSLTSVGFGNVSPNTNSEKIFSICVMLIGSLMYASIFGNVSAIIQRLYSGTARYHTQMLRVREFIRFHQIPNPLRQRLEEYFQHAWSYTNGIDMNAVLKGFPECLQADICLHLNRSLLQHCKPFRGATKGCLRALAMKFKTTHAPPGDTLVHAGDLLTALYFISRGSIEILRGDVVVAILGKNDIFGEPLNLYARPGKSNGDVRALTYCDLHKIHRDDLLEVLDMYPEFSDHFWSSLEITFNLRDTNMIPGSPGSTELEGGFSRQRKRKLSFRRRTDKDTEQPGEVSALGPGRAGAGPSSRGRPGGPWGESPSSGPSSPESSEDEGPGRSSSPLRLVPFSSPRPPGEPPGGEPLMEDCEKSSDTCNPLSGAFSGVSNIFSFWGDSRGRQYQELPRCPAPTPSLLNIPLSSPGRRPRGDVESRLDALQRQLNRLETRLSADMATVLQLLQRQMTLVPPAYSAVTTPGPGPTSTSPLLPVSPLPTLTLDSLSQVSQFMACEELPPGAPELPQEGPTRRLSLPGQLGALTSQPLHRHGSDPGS
UniProt P11712, whole entry: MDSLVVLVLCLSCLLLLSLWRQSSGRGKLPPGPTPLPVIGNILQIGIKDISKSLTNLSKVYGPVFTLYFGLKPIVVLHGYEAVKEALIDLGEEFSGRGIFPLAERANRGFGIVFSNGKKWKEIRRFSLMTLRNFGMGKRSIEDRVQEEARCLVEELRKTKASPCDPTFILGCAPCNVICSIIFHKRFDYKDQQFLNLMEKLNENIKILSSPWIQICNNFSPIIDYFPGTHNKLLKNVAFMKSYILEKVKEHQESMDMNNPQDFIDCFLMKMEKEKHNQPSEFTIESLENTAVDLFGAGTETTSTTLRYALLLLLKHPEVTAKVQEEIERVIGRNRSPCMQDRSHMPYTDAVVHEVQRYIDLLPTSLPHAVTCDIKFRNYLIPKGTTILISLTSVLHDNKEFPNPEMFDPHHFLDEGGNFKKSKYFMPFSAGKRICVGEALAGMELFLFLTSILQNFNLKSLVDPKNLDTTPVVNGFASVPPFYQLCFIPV

One experiment addresses Cytochrome P450 2C19 (Homo sapiens, UniProt P33261).
Experiment [1] concerns the target T1, Voltage-gated inwardly rectifying potassium channel KCNH2 (Homo sapiens, UniProt Q12809).
A further experiment has as its target Cytochrome P450 2C9 (Homo sapiens, UniProt P11712).
Experiment [2] has as its target T1, Voltage-gated inwardly rectifying potassium channel KCNH2. This is another data set of the same source.

SMILES strings stand for the structures.

Consider `CCNC(=O)C[C@@H]1N=C(c2ccc(Cl)cc2)c2cc(OC)ccc2-n2c(C)nnc21` [MOLIBRESIB], for which the IC50 at Cytochrome P450 2C19 is more than 50 µM; in experiment [1], more than 100 µM; on Cytochrome P450 2C9, more than 50 µM; in experiment [2], 63.1 µM.

For orientation: IC50 means the midpoint of a concentration-inhibition curve. A high value points to weaker potency in that assay.
